Reference: article PMC6795461
Results are given in words; binding and its absence hold for the method and conditions named. Binding seen in cells or lysates may run through a third protein. Some binding calls cover weakened binding; strength is not graded here. For some assays here: Sequences can lack the tags named with a protein.

Chains of the proteins cited; added tags and fusions are not shown.
UniProt G5EES3: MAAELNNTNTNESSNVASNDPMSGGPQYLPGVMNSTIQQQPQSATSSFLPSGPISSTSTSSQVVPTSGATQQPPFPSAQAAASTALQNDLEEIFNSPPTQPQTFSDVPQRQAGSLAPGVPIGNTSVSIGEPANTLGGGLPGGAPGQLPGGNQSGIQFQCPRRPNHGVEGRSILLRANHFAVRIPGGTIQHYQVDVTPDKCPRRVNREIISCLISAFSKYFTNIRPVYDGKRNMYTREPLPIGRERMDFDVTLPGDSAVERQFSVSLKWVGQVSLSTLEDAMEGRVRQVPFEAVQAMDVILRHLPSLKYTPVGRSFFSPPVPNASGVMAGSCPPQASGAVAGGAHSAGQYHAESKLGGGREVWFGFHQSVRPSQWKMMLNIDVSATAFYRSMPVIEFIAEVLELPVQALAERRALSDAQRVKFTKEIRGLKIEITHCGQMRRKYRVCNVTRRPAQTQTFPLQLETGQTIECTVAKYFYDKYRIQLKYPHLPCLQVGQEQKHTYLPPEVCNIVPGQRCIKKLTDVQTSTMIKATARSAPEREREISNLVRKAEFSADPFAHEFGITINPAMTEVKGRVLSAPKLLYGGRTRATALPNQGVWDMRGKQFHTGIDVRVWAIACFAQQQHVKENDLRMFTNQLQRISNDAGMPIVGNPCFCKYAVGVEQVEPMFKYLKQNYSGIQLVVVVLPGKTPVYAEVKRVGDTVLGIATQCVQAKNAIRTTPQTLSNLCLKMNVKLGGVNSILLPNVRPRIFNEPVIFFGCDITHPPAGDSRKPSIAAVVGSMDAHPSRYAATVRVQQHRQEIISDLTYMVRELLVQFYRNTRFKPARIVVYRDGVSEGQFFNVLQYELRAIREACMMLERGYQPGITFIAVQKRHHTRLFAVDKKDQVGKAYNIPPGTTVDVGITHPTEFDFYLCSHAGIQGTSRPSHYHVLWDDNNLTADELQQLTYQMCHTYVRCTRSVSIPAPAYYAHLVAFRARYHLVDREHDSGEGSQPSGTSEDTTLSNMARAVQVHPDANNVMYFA

T1: HRPK-1 (C. elegans (endogenous in mixed stage animals)) (UniProt P91277)
T1 sequence: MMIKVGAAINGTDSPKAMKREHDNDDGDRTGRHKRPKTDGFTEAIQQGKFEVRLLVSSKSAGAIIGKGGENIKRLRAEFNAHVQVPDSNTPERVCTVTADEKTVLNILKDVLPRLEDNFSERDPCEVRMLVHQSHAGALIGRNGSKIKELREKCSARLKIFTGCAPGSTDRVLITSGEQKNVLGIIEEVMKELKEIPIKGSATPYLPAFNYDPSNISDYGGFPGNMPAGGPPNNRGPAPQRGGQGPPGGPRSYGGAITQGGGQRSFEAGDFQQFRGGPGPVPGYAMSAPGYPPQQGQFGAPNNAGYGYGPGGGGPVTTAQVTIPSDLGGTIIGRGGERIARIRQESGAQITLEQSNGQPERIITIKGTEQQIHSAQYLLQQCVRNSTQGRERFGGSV

B1: HRP-1 (protein, UniProt Q22037 1-346)
chain: MTDVEIKAENGSGDASLEPENLRKIFVGGLTSNTTDDLMREFYSQFGEITDIIVMRDPTTKRSRGFGFVTFSGKTEVDAAMKQRPHIIDGKTVDPKRAVPRDDKNRSESNVSTKRLYVSGVREDHTEDMLTEYFTKYGTVTKSEIILDKATQKPRGFGFVTFDDHDSVDQCVLQKSHMVNGHRCDVRKGLSKDEMSKAQMNRDRETRGGRSRDGQRGGYNGGGGGGGGWGGPAQRGGPGAYGGPGGGGQGGYGGDYGGGWGQQGGGGQGGWGGPQQQQGGGGWGQQGGGGQGGWGGPQQQQQGGWGGPQQGGGGGGWGGQGQQQGGWGGQSGAQQWAHAQGGNRNY

What was measured:
[1] = target: T1, HRPK-1 (C. elegans (endogenous in mixed stage animals)); experiment: co-IP; HRPK-1 IP as a1, lysates incubated with RNAse A (20 ug/ml) prior to and during the IP; Western blot for ALG-1
[2] = target: ALG-1 (C. elegans (endogenous in mixed stage animals)) (UniProt G5EES3); experiment: co-IP; ALG-1 IP from worm extract, Protein A Dynabeads; Western blot; wild type and hrpk-1 mutant animals for AIN-1

| Molecule | binding [1] | binding [2] |
| --- | --- | --- |
| ALG-1 (from UniProt G5EES3 1-1023) | binds |  |
| B1 |  | no binding |
